# Laboratory results: PubChem BioAssay AID1671190 (National Center for Advancing Translational Sciences (NCATS), 2021)
# Sequences of proteins named here, by UniProt entry; tags and fusion partners are left off. A change or cut given only in a name is not applied to a line headed by its entry.
# UniProt P18054: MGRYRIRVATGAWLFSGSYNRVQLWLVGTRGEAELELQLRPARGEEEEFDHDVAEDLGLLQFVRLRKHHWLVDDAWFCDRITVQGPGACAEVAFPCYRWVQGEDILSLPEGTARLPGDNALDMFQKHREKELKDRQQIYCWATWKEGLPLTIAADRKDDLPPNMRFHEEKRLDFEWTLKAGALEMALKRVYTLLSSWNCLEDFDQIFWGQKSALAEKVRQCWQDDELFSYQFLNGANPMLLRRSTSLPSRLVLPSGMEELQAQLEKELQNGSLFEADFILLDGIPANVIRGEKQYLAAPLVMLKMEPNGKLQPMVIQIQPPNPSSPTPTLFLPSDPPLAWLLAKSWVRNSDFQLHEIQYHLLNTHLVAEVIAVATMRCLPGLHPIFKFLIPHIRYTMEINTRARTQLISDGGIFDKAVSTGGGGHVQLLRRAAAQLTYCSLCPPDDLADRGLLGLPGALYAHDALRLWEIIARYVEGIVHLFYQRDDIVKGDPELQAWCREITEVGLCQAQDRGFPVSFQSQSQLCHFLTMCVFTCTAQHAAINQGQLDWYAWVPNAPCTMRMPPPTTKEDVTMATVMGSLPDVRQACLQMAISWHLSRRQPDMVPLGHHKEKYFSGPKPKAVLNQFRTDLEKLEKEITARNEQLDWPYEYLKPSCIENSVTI
# Values joined by “and” are separate entries in the source; they are usually repeats but may differ in a detail not shown here. Identical values can stand only once. Among all 580,000 compounds or so, about 6,100 (1.1%) were called active. The inconclusive results got no clear call from the source; some entries with a clear call stand among them for comparison. The call rests on the fitted dose curve; in most records, active means well fitted inhibition curve with a large enough effect; inconclusive means small, poorly fitted or top-dose-only effect, or another doubt; inactive means no such curve, though single readings can be large or run the other way. A potency beside an inconclusive call is a rough fit, not a confirmed value.
# Biological target: Polyunsaturated fatty acid lipoxygenase ALOX12 (Homo sapiens) (UniProt P18054)
# Experiment: Primary qHTS assay for inhibitors of human arachidonate 12S-lipoxygenase (ALOX12): Round 2
# Settings: purified 12hLO, xylenol orange hydroperoxide absorbance; activity change, negative = inhibition: at 108 µM (top of the series) unless noted
# In short: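 Purified human 12hLO at 150 nM in 25 mM Hepes, 0.01% Triton X-100, pH 7.0, preincubated 15 min at room temperature with compound. Reaction started with 40 uM arachidonic acid, 30 min at room temperature. Hydroperoxide measured by Fe-xylenol orange, 573/405 nm absorbance ratio.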
# On the % scale 0 is the no-effect control and ±100 the full control effect; potency means the concentration at half of the fitted maximal effect.
SMILES,Potency,"activity change, negative = inhibition"
CC(=O)c1ccc(OCC(C)C)c(CN2CCCCC2)c1,"inconclusive: 35.5 µM [inhibitor, partial curve, poor fit]",
CCc1nc2nc(C)c(NS(=O)(=O)c3ccc4c(c3)CCCC4)c(=O)n2[nH]1,"inconclusive: 89.1 µM [inhibitor, single point]",
Cc1cccc(NC(=S)N2CCN(S(=O)(=O)c3ccccc3)CC2)c1,,inactive: 0%
Fc1ccc(/C=N/n2cnn(Cc3ccccc3Cl)c2=S)cc1,,inactive: -27.1%
O=S(=O)(Nc1cccc(-c2ccc3nncn3n2)c1)c1cccc(F)c1,,inactive: -8.98%
COc1cc(NC(=O)Cn2nc(-c3ccccc3)c3c(c2=O)CCCC3)cc(OC)c1,"inconclusive: 50.1 µM [inhibitor, partial curve, poor fit]",
Cc1ccc([N+](=O)[O-])cc1N=Nc1c(C)[nH]n(C(N)=S)c1=O,,inactive: -1.95%
CC(=O)NC1(C)CN(Cc2ccc(-c3cccc(C(F)(F)F)c3)s2)C1,"inconclusive: 28.2 µM [inhibitor, partial curve]",
CCCCN(C)C(=O)C1CCN(S(=O)(=O)c2c(C)noc2/C=C/c2ccccc2F)CC1,"inconclusive: 112 µM [inhibitor, single point]",
Cc1nn(-c2ccccc2)c(C)c1/C=N/n1c(-c2ccncc2)n[nH]c1=S,"inconclusive: 31.6 µM [inhibitor, partial curve, poor fit]",
O=C(/C=C/c1ccc(O)cc1)c1c(O)cc(O)cc1O,"inconclusive: 70.8 µM [inhibitor, partial curve, poor fit]",
CN1CCN(c2nc(Nc3ccc(F)cc3)nc(Nc3ccc(F)cc3)n2)CC1,"inconclusive: 126 µM [inhibitor, single point]",
CCOC(=O)c1ccccc1NC(=O)CN1C(=O)NC2(CCCCC2)C1=O,,inactive: -9.21%
COc1cc(/C=C2\C(=N)N3N=C(S(C)(=O)=O)SC3=NC2=O)ccc1OC(=O)c1ccco1,"inconclusive: 50.1 µM [inhibitor, partial curve, poor fit]",
O=C(CSc1ccccc1Cl)c1ccco1,"inconclusive: 50.1 µM [inhibitor, partial curve, poor fit]",
COc1ccc(C2/C=C\CN(C(=O)c3ccccc3)[C@H](Cc3ccccc3)C(=O)N2Cc2ccc(F)cc2)cc1 (stereo partly drawn),"inconclusive: 31.6 µM [inhibitor, single point]",
CCOc1ccc(CNC(=O)Cn2ccc3cc(S(=O)(=O)N4CCCCC4)ccc32)cc1,,inactive: -19.4%
O=C(Nc1cccc(S(=O)(=O)Nc2ccc(Cl)cc2)c1)c1ccc[n+]([O-])c1,"inconclusive: 178 µM [inhibitor, single point]",
Cc1nnc(SCC(=O)Nc2ccc(N(C)C)cc2)n(N)c1=O,,inactive: 7.91%
O=C(C1CCCC1)N1CC2(CCN(C3COC3)C2)Cc2ccccc21 (stereo not drawn),"inconclusive: 31.6 µM [inhibitor, full curve, poor fit]",
COc1ccc(NC(=S)NCCCc2ccccc2)cc1,"inconclusive: 44.7 µM [inhibitor, partial curve, poor fit]",

SMILES,Potency,"activity change, negative = inhibition"
O=C(NNC(=S)Nc1ccc(F)cc1)C1CC1c1ccc(Cl)cc1 (stereo not drawn),"inconclusive: 50.1 µM [inhibitor, partial curve, poor fit]",
COc1cc(CNc2ccc(N3CCCC3)cc2)cc(Cl)c1OC,"inconclusive: 25.1 µM [inhibitor, single point]",
O=C(NNS(=O)(=O)c1ccc(F)cc1)C1CCCCC1,"inconclusive: 0.224 µM [inhibitor, full curve, poor fit]",
COc1ccc(N2CCN(c3nc(C(=O)NCc4ccccc4C)cs3)CC2)cc1,"inconclusive: 2 µM [inhibitor, full curve, poor fit]",
CCOC(=O)[C@]12CCCC=C1N(Cc1ccco1)C(=O)[C@H](CC(=O)N1CCC(c3ccccc3)CC1)C2,"inconclusive: 8.91 µM [inhibitor, full curve]",
CCCC(=O)N1CC2(CCN(C)CC2)c2c(n(C)c3cc(OC)ccc23)[C@H]1CO,,inactive: -13.1%
Cc1cc(C)c2nc(N3CCOCC3)c(C#N)cc2c1,"inconclusive: 44.7 µM [inhibitor, partial curve, poor fit]",
Fc1ccc(C(CCCn2nnc(-c3cccnc3)n2)c2ccc(F)cc2)cc1,"inconclusive: 79.4 µM [inhibitor, partial curve, poor fit]",
CCOC(=O)N1CCN(c2nc(-c3ccc(F)cc3)cs2)CC1,,inactive: 0%
O=C1NCCCCCCN(C(=O)NC2CCCCC2)[C@H]2C[C@H](C(=O)N3CCc4ccccc4C3)C[C@@H]12,,inactive: 2.11%
Cc1ccc(C)c(NC(=O)c2nnn(Cc3ccc(F)cc3Cl)c2N)c1,"inconclusive: 44.7 µM [inhibitor, partial curve, poor fit]",
CCOc1ncccc1C(=O)OCC(=O)c1cccc(Br)c1,"inconclusive: 112 µM [inhibitor, partial curve, poor fit]",
COc1ccccc1CN(Cc1cccs1)C(=O)Cc1n[nH]c(=O)c2ccccc12,"inconclusive: 79.4 µM [inhibitor, single point]",
CCOc1ccc(C(=O)Nc2ccc3oc(-c4cccc(I)c4)nc3c2)cc1,"inconclusive: 89.1 µM [inhibitor, partial curve, poor fit]",
CC1(C(=O)NS(=O)(=O)c2ccc(C#N)cc2)CCN1C(=O)C1(c2ccc(Cl)cc2)CC1 (stereo not drawn),"inconclusive: 44.7 µM [inhibitor, partial curve, poor fit]",
Cc1ccc(-n2nnnc2CNC(=O)C2CC(=O)N(c3ccc(F)cc3)C2)cc1C (stereo not drawn),"inconclusive: 50.1 µM [inhibitor, partial curve, poor fit]",
N#C/C(=C\c1ccc(N2CCOCC2)o1)C(=O)NCCc1ccccc1,"inconclusive: 79.4 µM [inhibitor, partial curve, poor fit]",
Cc1ccccc1CN1CCN(C(=O)c2ccc(F)cc2)CC1,"inconclusive: 2.82 µM [inhibitor, full curve, poor fit]",
CCOc1ccc(N/C=C/C(=O)c2ccc(OC)cc2)cc1,,inactive: 3.71%
N#C/C(=C/c1ccc(OCCOc2ccccc2)cc1)c1ccc(Cl)cc1Cl,"inconclusive: 44.7 µM [inhibitor, partial curve, poor fit]",
Cc1ccn2c(NC3CCCCC3)c(-c3cccc(SC4CCCCC4)c3)nc2c1,"inactive and inconclusive: 44.7 µM [inhibitor, partial curve, poor fit]",

SMILES,Potency,"activity change, negative = inhibition"
CCOC(=O)c1ccc(Nc2nc3ccccc3nc2NS(=O)(=O)c2ccc(F)cc2)cc1,"inconclusive: 20 µM [inhibitor, partial curve, poor fit]",
Cc1noc(C)c1-c1cncnc1NCc1cccnc1,"inconclusive: 8.91 µM [inhibitor, full curve, poor fit]",
Cc1ccc2[nH]c(=O)c(C(c3nnnn3C(C)(C)C)N(Cc3ccco3)CC3CCCO3)cc2c1 (stereo not drawn),,inactive: 25.2%
COC(=O)c1cnc(Oc2ccc(NC(=O)NC(=O)c3c(F)cccc3F)cc2)cc1C(F)(F)F,"inconclusive: 112 µM [inhibitor, partial curve, poor fit]",
O=c1c2cc(N3CCOCC3)ccc2[nH]c(=S)n1Cc1ccccn1,,inactive: -11.6%
COc1cc2c(cc1OC)CN(C(=O)COc1ccc(C#N)cc1)CC2,"inconclusive: 5.62 µM [inhibitor, full curve, poor fit]",
CN(C)CCNC(=O)/C(=C/c1ccc(-c2cccc([N+](=O)[O-])c2)o1)NC(=O)c1ccccc1,,inactive: -5.86%
CCc1ccc(C=C2SC(=S)NC2=O)cc1,active: 10.9 µM,
NNc1nc2ccc(Cl)cc2s1,active: 7.08 µM,
Cc1nc(-c2ccccc2)n(Cc2cc(F)cc(F)c2)c(=O)c1CCO,"inconclusive: 56.2 µM [inhibitor, partial curve, poor fit]",
CC(C)C(=O)Nc1nnc(Sc2ccc(N(C)C)cc2)s1,"inconclusive: 31.6 µM [inhibitor, partial curve, poor fit]",
COC(=O)Cn1c(=O)c2c(n(Cc3ccccc3)c1=O)N/C(=C/c1ccc(Br)cc1)C2=O,"inconclusive: 44.7 µM [inhibitor, single point]",
O=c1cc2c(nn1Cc1ccc(F)cc1)-c1ccccc1CC2,,inactive: -8%
CCOC(=O)C1=C(C)N=C2SC(C)C(=O)N2C1c1ccc(C(=O)OC)cc1 (stereo not drawn),,inactive: 0%
COc1ccc(NC(=O)N2c3ccc(OC)cc3C(C)=CC2(C)C)cc1,"inconclusive: 44.7 µM [inhibitor, partial curve, poor fit] and inconclusive: 3.98 µM [inhibitor, full curve, poor fit]",
O=C(Cc1cn2ccsc2n1)Nc1cccc(S(=O)(=O)N2CCCCCC2)c1,,inactive: 8.32%
CCOC(=O)C1CCN(Cc2cc(=O)oc3c(C)cc(C)cc23)CC1,,inactive: -1.28%
Nc1cccnc1Sc1cccc(Cl)c1,"inconclusive: 12.6 µM [inhibitor, partial curve]",
CN(Cc1ccco1)C(=O)c1ccc2ncsc2c1,"inconclusive: 28.2 µM [inhibitor, partial curve, poor fit]",
CCO[C@@H]1OC(C(=O)N2CCN(Cc3ccc4c(c3)OCO4)CC2)=C[C@H](c2ccc3c(c2)OCO3)[C@H]1CCCO,"inconclusive: 50.1 µM [inhibitor, partial curve, poor fit]",
NC(=O)c1cccc(CN2CCCC23Cc2ccccc2NC3=O)c1 (stereo not drawn),"inconclusive: 35.5 µM [inhibitor, partial curve, poor fit]",
